Experimental data published in patent US11649228B2, “Zinc indicators for cellular imaging” (The Board of Regents of the University of Texas System, priority 2018, dated 2023).

Experiment: Zn^2+ titration of ZIGIRs by fluorescence emission (Hill plot)
Format: binding
Description: UV-Vis spectra were recorded in a 1-cm path quartz cell on a Shimadzu 2401 PC spectrometer. Fluorescence excitation and emission spectra were recorded on a Fluorolog 3 spectrometer (Jobin-Yvon Horiba, Edison, N.J.). Zinc titration was performed by adding ZIGIRs (0.5 μM final concentration) to buffered Zn^2+ solutions containing 100 mM HEPES (pH 7.4). Nitrilotriacetic acid (NTA, 10 mM) and varying concentrations of ZnSO4 (0-9 mM) were mixed to reach free Zn^2+ concentrations between 0.1 nM and 40 nM (Li et al., 2011). Zn^2+ concentrations above 40 nM were controlled by iminodiacetate (IDA, 10 mM) and varying amounts of ZnSO4 (0-9.7 mM) in 100 mM HEPES (pH 7.4; Sasaki et al., 2011). To determine Zn^2+ binding dissociation constants (Kd(Zn^2+)), the Zn^2+ titration data were fitted to the least square exponential equation (Prism 7). Fluorescence quantum yields of ZIGIRs at pH 7.5 were determined using rhodamine 6G as the reference (Φfl=0.94 in MeOH; Magde et al., 2002). An example in shown FIGS. 11A0B. To examine the pH sensitivity of ZIGIRs, the fluorescence emission spectra was recorded from pH 3-9.4 in either nominally Zn^2+-free solutions containing 5 mM iminodiacetate or in 25 μM ZnSO4 solutions. […]

| SMILES | nH (Hill coefficient) |
| --- | --- |
| CN=c1ccc2c(-c3ccc(NCCN(CCc4ccccn4)Cc4ccccn4)cc3C(=O)O)c3ccc(NC)cc3oc-2c1 [ZIGIR-1] | 0.99 |
| CN(C)c1ccc2c(-c3ccc(NCCN(CCc4ccccn4)Cc4ccccn4)cc3C(=O)[O-])c3ccc(=[N+](C)C)cc-3oc2c1 [ZIGIR-2] | 1.03 |
